Test results taken from PubChem BioAssay AID1347076 (National Center for Advancing Translational Sciences (NCATS), 2019).
In all, about 400,000 compounds went through this assay and about 13,000 (3.2%) were called active. The shares of active, inactive and inconclusive entries below differ from those in the screen. The call rests on the fitted dose curve; in most records, active means well fitted cell-killing curve with a large enough effect; inconclusive means small, poorly fitted or top-dose-only effect, or effect the other way; inactive means flat fitted curve, though single readings scatter. A potency beside an inconclusive call is a rough fit, not a confirmed value.

assay: qHTS assay for MDR1-selective chemotherapeutics: Primary screen using the drug-selected MDR subline cells KB-V1; conditions: KB-V1 MDR cells viability, CellTiter-Glo, 72 h; activity change, negative = cytotoxicity: at 46.1 µM (top of the series); further: nearly all actives have a fitted effect of over 60% in size
Procedure, shortened: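 Cytotoxicity via CellTiter-Glo luminescence after 72 h compound exposure at 37 degrees C. Cells: drug-selected KB-V1 line, DMEM phenol-red free plus 10% FBS. Compounds tested at multiple concentrations; normalized data fitted to concentration-effect curves.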
On the % scale 0 is the no-effect control and ±100 the full control effect; potency means the concentration at half of the fitted maximal effect.

| Compound | Potency | activity change, negative = cytotoxicity |
| --- | --- | --- |
| COc1ccc(N2CCN(C(=O)c3ccc(SC)cc3OC)CC2)cc1 | inconclusive: 16.4 µM [cytotoxic, single point] |  |
| COC(=O)c1sc(NC(=O)c2ccc([N+](=O)[O-])o2)c(C#N)c1C |  | inactive: -2.58% |
| O=C1N/C(=C/c2cccn2-c2ccc(F)cc2)C(=O)N1Cc1ccccc1 | inconclusive: 11.6 µM [cytotoxic, partial curve] |  |
| Cc1cccc(C)c1OCC(=O)N1CC2(C)CC1CC(C)(C)C2 (stereo unspecified) | inconclusive: 35.5 µM [cytotoxic, single point] |  |
| CCOC(=O)Cn1cc(-c2ccccc2)nn1 | inconclusive: 0.0065 µM [rising, full curve] |  |
| COc1ccccc1CCNC(=O)C(=O)NCC(c1cccs1)S(=O)(=O)c1ccc(F)cc1 (stereo unspecified) |  | inactive: -1.13% |
| COc1ccc(NC(=O)Nc2ccc(Br)cn2)cc1 | inconclusive: 32.6 µM [rising, single point] |  |
| CC(Oc1ccccc1)C(=O)OCc1cc(=O)n2nc(C(C)C)sc2n1 (stereo unspecified) | inconclusive: 18.4 µM [rising, single point] |  |
| Nc1[nH]c(C(=O)c2ccccc2)c(-c2ccc(Cl)cc2)c1C(=O)NCCc1c[nH]c2ccccc12 |  | inactive: -13.2% |
| CCCSc1ccc(C(=O)Nc2ccc(Cl)cc2)cn1 | inconclusive: 32.6 µM [cytotoxic, partial curve, poor fit] |  |
| Cc1cc(C)c(S(=O)(=O)N(C)CC(=O)NC2CCCC2)c(C)c1 | inconclusive: 20.6 µM [cytotoxic, partial curve] |  |
| CCOC(=O)COc1cccc2c(=O)n(CC(=O)NCc3ccccc3)ccc12 | active: 1.64 µM |  |
| c1ccc(COc2cccc(-c3cc4nc(NCc5cccs5)ccn4n3)c2)cc1 | inconclusive: 29.1 µM [cytotoxic, single point] |  |
| CC(C)CCNC(=O)C(c1ccc(O)cc1)N(Cc1ccco1)C(=O)CCC(=O)Nc1nccs1 (stereo unspecified) |  | inactive: 14.8% |
| CC(=O)Nc1cccc(NC(=O)c2ccc3c(c2)CCN3S(=O)(=O)c2ccccc2)c1 |  | inconclusive: -4.29% |
| Cn1c(/C=N/NC(=O)c2ccccc2Br)nc2ccccc21 | inconclusive: 16.4 µM [cytotoxic, single point] |  |
| COc1ccc(CCNS(=O)(=O)c2ccc(Br)cc2)cc1 | inconclusive: 25.9 µM [rising, single point] |  |
| Cn1c(-c2ccccc2)cnc1SCC(=O)N1CCCc2ccccc21 | active: 5.8 µM |  |
| Cc1cc(Nc2cccc(C(=O)O)c2)n2ncnc2n1 |  | inactive: 0% |
| Cc1ccc2c(Cl)c(C(=O)Nc3cc(C)on3)sc2c1 | inconclusive: 7.31 µM [cytotoxic, partial curve] |  |
| Cc1c([N+](=O)[O-])c(C(=O)N2CCCC2)nn1C | inconclusive: 20 µM [rising, single point] |  |
| CCCn1c(=O)c(C(=O)NCCc2ccccc2)c(O)c2ccccc21 | inconclusive: 0.116 µM [cytotoxic, full curve] |  |
| Cc1ccc(CSc2ccc3nnc(-c4ccccn4)n3n2)cc1 | inconclusive: 20.6 µM [cytotoxic, single point] |  |
| Cc1nn(CC(=O)Nc2ccc(S(N)(=O)=O)cc2)c(=O)c2ccccc12 |  | inactive: 0% |

One compound at a time, from the list above:
CC(Oc1ccccc1)C(=O)OCc1cc(=O)n2nc(C(C)C)sc2n1 (stereo unspecified) is listed as Potency: inconclusive: 18.4 µM [rising, single point]
CCCSc1ccc(C(=O)Nc2ccc(Cl)cc2)cn1 is listed as Potency: inconclusive: 32.6 µM [cytotoxic, partial curve, poor fit]
Cn1c(-c2ccccc2)cnc1SCC(=O)N1CCCc2ccccc21 is listed as Potency: active: 5.8 µM
CC(=O)Nc1cccc(NC(=O)c2ccc3c(c2)CCN3S(=O)(=O)c2ccccc2)c1 is listed as activity change, negative = cytotoxicity: inconclusive: -4.29%

Additional records

| Compound | Potency | activity change, negative = cytotoxicity |
| --- | --- | --- |
| CC1=C(c2ccc(C)c(C)c2)S(=O)(=O)N=C1N1CCC(C(=O)Nc2ccc(Cl)cc2)CC1 |  | inactive: -13.2% |
| CCc1nn(CC(=O)N2CCN(c3cc(C)ccc3C)CC2)c(=O)c2cc3occc3n12 | inconclusive: 29.1 µM [rising, single point] |  |
| O=S(=O)(Nc1ccc(-c2ccc(N3CCCCCC3)nn2)cc1)c1cccc(C(F)(F)F)c1 | inconclusive: 0.0052 µM [cytotoxic, full curve] |  |
| Cc1cc(C)c(C)c(S(=O)(=O)Nc2ccccc2N2CCOCC2)c1C | inconclusive: 18.4 µM [cytotoxic, single point] |  |
| CCN(Cc1ccncc1)Cc1nc(-c2ccc(C(=O)OC)cc2)no1 |  | inactive: -21.7% |
| CC1(C)c2[nH]c3ccccc3c2C[C@H]2C(=O)N(Cc3ccc(F)cc3)C(=O)N21 | inconclusive: 13 µM [cytotoxic, partial curve, poor fit] |  |
| O=C(CSc1nc2ccccc2s1)N/N=C/c1ccc(C(=O)O)cc1 | inconclusive: 0.0731 µM [cytotoxic, full curve] |  |
| N#Cc1cc(-c2ccccc2)c[nH]c1=O | inconclusive: 29.1 µM [cytotoxic, single point] |  |
| CCn1c(N2CCN(CC(=O)c3ccc(OC)cc3)CC2)nc2ccccc21 |  | inactive: -8.65% |
| N#Cc1ccc(NC(=O)c2cc(-c3cccc(Cl)c3)on2)cc1 | inconclusive: 7.31 µM [rising, partial curve, poor fit] |  |
| COC(=O)c1c(NC(=O)C2COc3ccccc3O2)sc2c1CCN(C(=O)OC)C2 (stereo unspecified) | inconclusive: 29.1 µM [cytotoxic, single point] |  |
| c1ccc(N=P(c2nc3ccccc3o2)(N2CCOCC2)N2CCOCC2)cc1 |  | inactive: -28.5% |
| CCOC(=O)N1CCN(C(=O)CSCC(=O)Nc2nc(-c3ccc(C)cc3)cs2)CC1 | inconclusive: 14.6 µM [cytotoxic, partial curve, poor fit] |  |
| O=C(O)c1ccc(-n2c(/C=C/c3ccccc3)nc3ccccc3c2=O)cc1 |  | inactive: 6.43% |
| CCCc1nc2oc3c(=O)[nH]cnc3c2c2c1CCCC2 | inconclusive: 16.4 µM [cytotoxic, single point] |  |
| O=[N+]([O-])c1ccccc1OCCCCN1CCCCC1 |  | inactive: -24.1% |
| COc1cc(/C=N/N2CCN(c3ccccc3OC)CC2)ccc1OC(C)=O |  | inactive: -7.78% |
| CC(=O)c1c(NCc2ccccc2)nc(=O)n(-c2ccccc2)c1C | inconclusive: 11.6 µM [cytotoxic, partial curve] |  |
| O=C(N/N=C/c1c(O)ccc2ccccc12)Nc1ccccc1 | inconclusive: 0.0116 µM [cytotoxic, full curve, poor fit] |  |
| O=C1CSc2ccc(C(=O)NCCc3ccc(Cl)cc3Cl)cc2N1 |  | inactive: -8.08% |
| Cc1ccc(NC(=O)COc2ccc(Br)cc2CO)cc1 | inconclusive: 18.4 µM [cytotoxic, partial curve, poor fit] |  |
| COCc1nnc(NS(=O)(=O)c2c(C)cc(C)cc2C)s1 |  | inactive: 4.4% |
| CN(Cc1ccccc1Br)C(=O)CN1C(=O)NC2(CCCCCC2)C1=O |  | inactive: 0% |
| CCCc1nn(C)c(C(=O)Nc2ccc(Cl)cc2)c1Cl |  | inactive: 0.0999% |

| Compound | Potency | activity change, negative = cytotoxicity |
| --- | --- | --- |
| COc1cccc(NC(=O)C(Cc2ccccc2)NC(=O)C2CCC(C)CC2)c1 (stereo unspecified) | inconclusive: 2.91 µM [cytotoxic, full curve, poor fit] |  |
| Cc1nc2c(C(=O)NCCc3ccccc3)c[nH]n2c(=O)c1Cc1ccccc1F | inconclusive: 10.3 µM [rising, partial curve] |  |
| Cc1cccc(NC(=O)COC(=O)c2nn(-c3ccccc3C(F)(F)F)cc2O)c1C |  | inactive: -2.72% |
| Cc1cc(C)n2c(NCc3ccccc3)c(-c3cc4ccccc4o3)nc2n1 | inconclusive: 20.6 µM [cytotoxic, partial curve] |  |
| CCCCc1cc(=O)oc2cc(C)cc(OC(C)C(=O)NCc3ccccn3)c12 (stereo unspecified) | inconclusive: 3.26 µM [cytotoxic, partial curve, poor fit] |  |
| Cc1ccc2c(c1)CC1(CN2C)C(=O)OC(C)(C)OC1=O | inconclusive: 8.2 µM [rising, partial curve] |  |
| COc1ccc(C(=O)Nc2c(C)ccc3nsnc23)cc1[N+](=O)[O-] | active: 14.6 µM |  |
| O=c1cc(-c2ccc(O)cc2)oc2ccccc12 | inconclusive: 29.1 µM [cytotoxic, single point] |  |
| O=C(NCc1cccs1)C1CC(=O)N(C2CCCC2)C1 (stereo unspecified) |  | inactive: 0% |
| Cc1ccc(N(Cc2ccc(C(=O)NC3CCCCC3)cc2)S(C)(=O)=O)cc1C | inconclusive: 2.06 µM [cytotoxic, full curve, poor fit] |  |
| COc1cc(C(=O)OCC(=O)N2CCC(Cc3ccccc3)CC2)cc(OC)c1OC |  | inactive: -21.3% |
| CC1CCN(CC(CS(=O)(=O)c2ccc([N+](=O)[O-])cc2)N2CCC(C)CC2)CC1 (stereo unspecified) | inconclusive: 20.6 µM [cytotoxic, single point] |  |
| COc1ccc(NC(=O)c2ccco2)cc1S(=O)(=O)N1CCCCC1 | inconclusive: 8.2 µM [cytotoxic, partial curve, poor fit] |  |
| O=C(N/N=C/c1cccs1)c1ccc(-n2cccc2)cc1 |  | inactive: 10.1% |
| O=C(CN1CCCCCC1)Nc1ccccc1C(=O)Nc1ccccc1 | inconclusive: 11.6 µM [cytotoxic, single point] |  |
| ClC1=C(Cl)C(Cl)=C(Cl)C1=C/C=C/c1ccccc1 | active: 4.11 µM |  |
| Cc1ccc(Cn2nnc3c(=O)[nH]c(C4CCCN(S(=O)(=O)c5ccccc5)C4)nc32)cc1 (stereo unspecified) | inconclusive: 16.4 µM [cytotoxic, partial curve, poor fit] |  |
| Cc1ccc(OCC(=O)NC(C)c2ccc(Cl)c(Cl)c2)c([N+](=O)[O-])n1 (stereo unspecified) | inconclusive: 10.3 µM [cytotoxic, partial curve] |  |
| COc1cc(NC(=O)NCCn2nnc3cc(S(=O)(=O)N(C)C)ccc32)cc(OC)c1OC | inconclusive: 23.1 µM [rising, single point] |  |
| N#CC1=C(N)OC2=C(CC/C2=C\c2ccccc2Cl)C1c1ccccc1Cl (stereo unspecified) | inconclusive: 29.1 µM [cytotoxic, single point] |  |
| COc1ccc(-c2nc3c4ccccc4n(CC(=O)Nc4ccc(C(C)=O)cc4)c(=O)n3n2)cc1 |  | inactive: 17.9% |
| CCOc1ncccc1C(=O)Nc1ccc2c(c1)OCCO2 |  | inactive: -3.64% |
| Cc1ccccc1C(=O)NC1(C(F)(F)F)C(=O)Nc2c1c(=O)[nH]c(=O)n2CCc1ccccc1 (stereo unspecified) | inconclusive: 16.4 µM [rising, single point] |  |
